{
  "sequences": {"note": "Amino acid sequences for entries named in this document (tags omitted). A change or cut given only in a name is not applied to a line headed by its entry. Chains listed by the source or under a name are the forms on record and can include a tag or linker.", "UniProt P52480": "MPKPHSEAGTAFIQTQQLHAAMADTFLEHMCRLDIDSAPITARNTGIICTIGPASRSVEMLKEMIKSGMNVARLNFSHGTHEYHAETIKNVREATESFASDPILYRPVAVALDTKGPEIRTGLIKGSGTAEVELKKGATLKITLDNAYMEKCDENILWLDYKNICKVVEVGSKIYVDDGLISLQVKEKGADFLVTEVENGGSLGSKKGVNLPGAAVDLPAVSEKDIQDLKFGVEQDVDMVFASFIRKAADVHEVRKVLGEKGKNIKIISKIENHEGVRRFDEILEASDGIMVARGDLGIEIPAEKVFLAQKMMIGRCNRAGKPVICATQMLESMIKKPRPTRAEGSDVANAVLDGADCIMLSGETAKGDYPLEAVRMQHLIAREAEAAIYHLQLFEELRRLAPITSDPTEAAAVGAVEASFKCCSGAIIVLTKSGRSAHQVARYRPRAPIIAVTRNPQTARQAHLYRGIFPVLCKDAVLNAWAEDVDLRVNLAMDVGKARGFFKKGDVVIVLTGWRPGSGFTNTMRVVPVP", "PKM1 (P52480-2, form named)": "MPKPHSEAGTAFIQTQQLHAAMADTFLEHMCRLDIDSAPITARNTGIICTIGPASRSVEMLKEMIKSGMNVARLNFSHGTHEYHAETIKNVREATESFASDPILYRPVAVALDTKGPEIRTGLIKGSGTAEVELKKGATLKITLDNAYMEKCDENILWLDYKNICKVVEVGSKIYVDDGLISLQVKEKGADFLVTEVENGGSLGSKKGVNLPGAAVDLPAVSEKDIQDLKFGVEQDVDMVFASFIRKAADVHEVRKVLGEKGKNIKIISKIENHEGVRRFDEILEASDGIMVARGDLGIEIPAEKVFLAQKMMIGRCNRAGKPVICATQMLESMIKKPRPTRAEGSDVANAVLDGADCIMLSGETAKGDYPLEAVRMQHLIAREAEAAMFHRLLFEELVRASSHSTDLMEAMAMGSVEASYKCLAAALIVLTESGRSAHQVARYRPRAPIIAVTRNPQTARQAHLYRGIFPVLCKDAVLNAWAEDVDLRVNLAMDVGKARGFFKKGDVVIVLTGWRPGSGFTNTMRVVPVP"},
  "source": "paper PMC10529755",
  "molecules": {"B1": {"name": "pantothenate kinase 4 (PANK4) (protein, UniProt Q80YV4 1-820)", "chain": "MAERGASGGGSGGDSLDKSITLPPDEIFRNLENAKRFAIDIGGSLTKLAYYSTVQHKVAKVRSFDHPGKDVEQDHEPPYEISVQEEITARLHFIKFENTYMEACLDFIRDHLVNTETKVIQATGGGAYKFKDLIEEKLRLKVDKEDVMTCLIKGCNFVLKNIPHEAFMYQKDSDPEFRFQTNHPNIFPYLLVNIGSGVSIVKVETEDRFEWIGGSSIGGGTFWGLGALLTKTKKFDELLQLASRGRHANVDMLVQDIYGGAHQTLGLSGNLIASSFGKSATADREFSKEDMAKSLLHMISNDIGQLACLYAKLHGLDRVYFGGFFIRGHPVTMRTITYSINFFSKGEVQALFLRHEGYLGAIGAFLKGAEQDNPNQYSWGENYAASSGLMSTSPELCPTQRARSGTFDLLEMDRLERPLVNLPLLLDPSSYVPDTVDLTDDALARQYWLTCFEEALDGVVKRAVASQPESMDAVERAEKFRQKYWGKLQTLRHQPFAYGTLTVRSLLDTREHCLNEFNFPDPYSKVKQKENGLALKCFQSVTRSLDSLGWEERQLALVKGLLAGNVFDWGAKAVSDVLESDPQFGFEEAKRKLQERPWLVDSYTKWLQRLKGPPHKCALIFADNSGIDIILGVFPFVRELLFRGTEVILACNSGPALNDVTYSESLIVAERIAAMDPIICTALREDRLLLVQTGSSSPCLDLSLCTSRTTTCMVLPFAMWVLWTKLKSLVEKCLSPLSILLACSVLSAKSRLDKGLAVLVRERGADLVVIEGMGRAIHTNYHALLRCESLKLAVVKNAWLAERLGGQLFSVIFKYEVPTK"}},
  "key": {"[1]": {"target": "T1, pantothenate kinase 4 (PANK4) (mouse (endogenous in mouse lens epithelium)) (UniProt Q80YV4)", "T1 sequence": "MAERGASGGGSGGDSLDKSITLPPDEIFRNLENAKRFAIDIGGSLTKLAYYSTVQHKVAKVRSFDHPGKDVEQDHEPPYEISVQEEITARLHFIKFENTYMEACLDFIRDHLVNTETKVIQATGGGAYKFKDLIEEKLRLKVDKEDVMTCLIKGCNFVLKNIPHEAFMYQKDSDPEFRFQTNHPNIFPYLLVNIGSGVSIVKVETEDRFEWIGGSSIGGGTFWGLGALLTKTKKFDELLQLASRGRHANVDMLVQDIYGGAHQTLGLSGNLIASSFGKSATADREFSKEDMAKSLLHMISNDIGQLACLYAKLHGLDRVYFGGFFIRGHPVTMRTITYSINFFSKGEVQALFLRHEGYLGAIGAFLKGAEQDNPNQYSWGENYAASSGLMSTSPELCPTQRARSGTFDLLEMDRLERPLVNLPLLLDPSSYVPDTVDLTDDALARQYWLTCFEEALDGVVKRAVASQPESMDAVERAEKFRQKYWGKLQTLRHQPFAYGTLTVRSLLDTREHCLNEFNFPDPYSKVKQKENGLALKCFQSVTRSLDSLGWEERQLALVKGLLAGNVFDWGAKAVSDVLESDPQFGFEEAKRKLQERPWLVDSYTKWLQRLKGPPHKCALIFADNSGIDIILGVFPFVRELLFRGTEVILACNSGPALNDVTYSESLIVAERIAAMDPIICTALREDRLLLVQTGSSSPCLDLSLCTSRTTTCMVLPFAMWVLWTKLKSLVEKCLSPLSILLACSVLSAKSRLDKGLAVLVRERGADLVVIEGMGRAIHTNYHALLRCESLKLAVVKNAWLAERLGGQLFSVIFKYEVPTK", "test": "co-IP; WT mouse lens epithelium lysate (300 μg in 500 μL NP40 lysis buffer with PMSF); 5 µg PKM1, PKM2 or PANK4 antibody on SureBeads, IgG as control; 1 h at RT; washed with PBS-T; eluate blotted"}, "[2]": {"target": "pyruvate kinase M2 isozyme (PKM2) (mouse (endogenous in mouse lens epithelium)) (UniProt P52480)", "test": "co-IP; WT mouse lens epithelium lysate (300 μg in 500 μL NP40 lysis buffer with PMSF); 5 µg PKM1, PKM2 or PANK4 antibody on SureBeads, IgG as control; 1 h at RT; washed with PBS-T; eluate blotted"}},
  "note": "Results are given in words; binding and its absence hold for the method and conditions named. In cells and extracts the contact can be indirect. Some entries that bind do so weakly or less than the wild type.",
  "data": [
    {"molecule": "PKM1 (from UniProt P52480-2 1-531)", "values": [
      {"measurement": "binding", "setting": "[1]", "result": "no binding"}
    ]},
    {"molecule": "pyruvate kinase M2 isozyme (PKM2) (from UniProt P52480 1-531)", "values": [
      {"measurement": "binding", "setting": "[1]", "result": "binds"}
    ]},
    {"molecule": "B1", "values": [
      {"measurement": "binding", "setting": "[2]", "result": "binds"}
    ]}
  ]
}
